Drawing on article PMC3482188, this text covers binding for one substance.

No constants are given. Whether binding was seen depends on the method and setting. In cells and extracts the contact can be indirect. Binding can be weak; no strength is given.

This test has as its target T1, Serum response factor (SRF) (rat (endogenous in RAOSMC)) (UniProt D3ZHH8).
T1 sequence: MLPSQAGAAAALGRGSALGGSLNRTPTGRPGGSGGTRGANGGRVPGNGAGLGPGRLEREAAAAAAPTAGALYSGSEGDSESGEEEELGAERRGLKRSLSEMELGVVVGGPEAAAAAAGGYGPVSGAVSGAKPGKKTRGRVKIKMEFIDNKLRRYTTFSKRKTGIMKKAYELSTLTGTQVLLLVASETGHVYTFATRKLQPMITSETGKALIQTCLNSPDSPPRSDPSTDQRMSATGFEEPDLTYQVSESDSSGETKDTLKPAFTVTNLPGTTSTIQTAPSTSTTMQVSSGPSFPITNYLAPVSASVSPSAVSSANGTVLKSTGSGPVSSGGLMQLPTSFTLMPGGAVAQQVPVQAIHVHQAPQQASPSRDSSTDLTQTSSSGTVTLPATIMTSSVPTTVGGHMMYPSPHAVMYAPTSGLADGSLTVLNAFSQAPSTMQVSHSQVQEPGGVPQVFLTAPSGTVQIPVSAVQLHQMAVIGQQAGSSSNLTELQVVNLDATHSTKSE
As to the kind of experiment: co-IP; RAOSMC lysate incubated with anti-SRF antibody and Protein A beads overnight at 4°C; beads washed three times, eluted in sample loading buffer with DTT; Western blot with an antibody against Baf60c; IgG control. Background: In western blotting, separated proteins are transferred to a membrane and probed.

As for BAF60c (rat (endogenous in RAOSMC)), the binding result is reported as “binds”.
